Assay [1] concerns the target SMARCC1 (human) (UniProt Q92922). In words: inter-protein BS3 crosslinks found by CX-MS in HA-PHF10-purified PBAF complexes (HEK-293T).
In assay [2] the target is SMARCA2 (human) (UniProt P51531). The description is as above.
In assay [3] the target is SMARCC1 (human) (UniProt Q92922). In words: inter-protein BS3 crosslinks (CX-MS), HA-BRD7-purified PBAF complexes from HEK-293T.
Assay [4] deals with SMARCA2 (human) (UniProt P51531). Described as above.

Amino acid sequences for entries named in this document (tags omitted). Residues count along the entry.
UniProt Q92922, residues 2-1105: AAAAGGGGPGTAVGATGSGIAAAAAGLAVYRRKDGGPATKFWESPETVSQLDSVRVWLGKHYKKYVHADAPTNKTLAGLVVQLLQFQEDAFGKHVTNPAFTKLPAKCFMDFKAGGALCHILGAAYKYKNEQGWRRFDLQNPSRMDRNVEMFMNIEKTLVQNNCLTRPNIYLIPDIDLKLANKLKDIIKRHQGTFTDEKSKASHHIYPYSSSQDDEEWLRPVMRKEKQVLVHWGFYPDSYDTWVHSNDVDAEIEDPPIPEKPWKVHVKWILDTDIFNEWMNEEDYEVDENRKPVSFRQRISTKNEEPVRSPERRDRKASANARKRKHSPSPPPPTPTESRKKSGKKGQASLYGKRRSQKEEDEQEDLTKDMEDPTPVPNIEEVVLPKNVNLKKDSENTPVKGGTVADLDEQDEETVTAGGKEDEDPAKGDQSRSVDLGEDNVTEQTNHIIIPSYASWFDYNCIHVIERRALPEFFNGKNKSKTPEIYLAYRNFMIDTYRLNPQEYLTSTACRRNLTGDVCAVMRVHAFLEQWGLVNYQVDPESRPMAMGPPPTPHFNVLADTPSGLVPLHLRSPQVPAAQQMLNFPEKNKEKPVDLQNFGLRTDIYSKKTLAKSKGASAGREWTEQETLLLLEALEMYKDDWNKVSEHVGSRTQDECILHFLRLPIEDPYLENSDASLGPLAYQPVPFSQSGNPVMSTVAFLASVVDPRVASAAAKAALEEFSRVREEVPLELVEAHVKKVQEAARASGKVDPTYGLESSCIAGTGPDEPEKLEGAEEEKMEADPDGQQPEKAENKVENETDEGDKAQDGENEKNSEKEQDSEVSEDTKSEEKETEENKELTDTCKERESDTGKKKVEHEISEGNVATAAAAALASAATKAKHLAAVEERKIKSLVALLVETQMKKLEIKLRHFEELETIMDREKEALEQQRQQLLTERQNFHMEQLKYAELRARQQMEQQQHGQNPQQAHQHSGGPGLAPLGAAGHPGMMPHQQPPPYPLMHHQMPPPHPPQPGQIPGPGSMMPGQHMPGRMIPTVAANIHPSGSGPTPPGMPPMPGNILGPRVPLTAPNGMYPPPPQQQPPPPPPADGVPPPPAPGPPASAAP
UniProt P51531: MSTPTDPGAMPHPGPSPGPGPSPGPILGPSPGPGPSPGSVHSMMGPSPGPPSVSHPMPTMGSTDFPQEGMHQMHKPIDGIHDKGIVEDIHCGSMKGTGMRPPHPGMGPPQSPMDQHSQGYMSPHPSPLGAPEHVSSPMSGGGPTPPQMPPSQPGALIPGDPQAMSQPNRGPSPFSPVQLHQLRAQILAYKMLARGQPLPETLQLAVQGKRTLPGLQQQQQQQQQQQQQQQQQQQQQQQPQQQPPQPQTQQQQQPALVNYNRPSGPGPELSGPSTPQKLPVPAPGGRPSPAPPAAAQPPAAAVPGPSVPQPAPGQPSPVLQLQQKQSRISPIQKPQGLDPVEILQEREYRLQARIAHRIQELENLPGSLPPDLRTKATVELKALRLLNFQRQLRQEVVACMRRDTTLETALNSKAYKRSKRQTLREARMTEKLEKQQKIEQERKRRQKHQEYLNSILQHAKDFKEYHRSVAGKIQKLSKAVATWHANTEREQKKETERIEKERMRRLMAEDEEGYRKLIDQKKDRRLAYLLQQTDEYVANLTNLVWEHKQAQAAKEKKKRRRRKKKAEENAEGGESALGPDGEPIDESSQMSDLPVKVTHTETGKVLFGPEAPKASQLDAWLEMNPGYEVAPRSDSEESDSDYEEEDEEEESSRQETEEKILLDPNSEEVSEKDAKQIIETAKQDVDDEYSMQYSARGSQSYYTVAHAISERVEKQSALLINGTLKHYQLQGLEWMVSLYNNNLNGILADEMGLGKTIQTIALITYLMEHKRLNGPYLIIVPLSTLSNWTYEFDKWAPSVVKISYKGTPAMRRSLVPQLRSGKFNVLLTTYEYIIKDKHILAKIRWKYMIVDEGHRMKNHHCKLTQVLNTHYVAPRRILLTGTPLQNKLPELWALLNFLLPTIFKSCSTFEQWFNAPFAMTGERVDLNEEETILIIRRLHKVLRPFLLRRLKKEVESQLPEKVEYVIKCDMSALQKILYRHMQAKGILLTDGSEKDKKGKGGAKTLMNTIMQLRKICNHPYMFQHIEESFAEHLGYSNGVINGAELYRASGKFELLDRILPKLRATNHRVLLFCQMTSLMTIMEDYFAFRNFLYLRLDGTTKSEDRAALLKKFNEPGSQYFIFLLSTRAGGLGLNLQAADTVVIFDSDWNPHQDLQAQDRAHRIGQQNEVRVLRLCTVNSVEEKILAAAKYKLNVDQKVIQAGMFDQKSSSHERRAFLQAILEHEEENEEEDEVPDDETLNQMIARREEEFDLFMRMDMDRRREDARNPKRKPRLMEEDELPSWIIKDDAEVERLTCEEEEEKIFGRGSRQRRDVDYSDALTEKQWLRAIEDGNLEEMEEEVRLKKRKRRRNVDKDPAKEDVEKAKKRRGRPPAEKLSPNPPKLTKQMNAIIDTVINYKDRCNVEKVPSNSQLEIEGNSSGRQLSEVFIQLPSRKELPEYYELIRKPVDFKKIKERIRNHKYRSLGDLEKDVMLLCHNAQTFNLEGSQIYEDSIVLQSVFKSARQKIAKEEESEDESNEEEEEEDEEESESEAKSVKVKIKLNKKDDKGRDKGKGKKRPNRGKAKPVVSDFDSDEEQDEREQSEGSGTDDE

No constants are given. Whether binding was seen depends on the method and setting. Some binding calls cover weakened binding; strength is not graded here. For some of these results: Where a sequence is shown, tags or fusion partners need not be part of it.

B1: HA-PHF10 (protein, human, UniProt Q8WUB8 1-498, looked up, not shown: small tags and cut ends)
chain: MAAAAGPGAALSPRPCDSDPATPGAQSPKDDNEDNSNDGTQPSKRRRMGSGDSSRSCETSSQDLGFSYYPAENLIEYKWPPDETGEYYMLQEQVSEYLGVTSFKRKYPDLERRDLSHKEKLYLRELNVITETQCTLGLTALRSDEVIDLMIKEYPAKHAEYSVILQEKERQRITDHYKEYSQMQQQNTQKVEASKVPEYIKKAAKKAAEFNSNLNRERMEERRAYFDLQTHVIQVPQGKYKVLPTERTKVSSYPVALIPGQFQEYYKRYSPDELRYLPLNTALYEPPLDPELPALDSDGDSDDGEDGRGDEKRKNKGTSDSSSGNVSEGESPPDSQEDSFQGRQKSKDKAATPRKDGPKRSVLSKSVPGYKPKVIPNAICGICLKGKESNKKGKAESLIHCSQCENSGHPSCLDMTMELVSMIKTYPWQCMECKTCIICGQPHHEEEMMFCDMCDRGYHTFCVGLGAIPSGRWICDCCQRAPPTPRKVGRRGKNSKEG
In the case of B1, the binding entry in the assay with SMARCC1 (human) [1] and in the assay with SMARCA2 (human) [2] was “binds” each time.

B2: PHF10 (protein, human, UniProt Q8WUB8 2-498, looked up)
chain: AAAAGPGAALSPRPCDSDPATPGAQSPKDDNEDNSNDGTQPSKRRRMGSGDSSRSCETSSQDLGFSYYPAENLIEYKWPPDETGEYYMLQEQVSEYLGVTSFKRKYPDLERRDLSHKEKLYLRELNVITETQCTLGLTALRSDEVIDLMIKEYPAKHAEYSVILQEKERQRITDHYKEYSQMQQQNTQKVEASKVPEYIKKAAKKAAEFNSNLNRERMEERRAYFDLQTHVIQVPQGKYKVLPTERTKVSSYPVALIPGQFQEYYKRYSPDELRYLPLNTALYEPPLDPELPALDSDGDSDDGEDGRGDEKRKNKGTSDSSSGNVSEGESPPDSQEDSFQGRQKSKDKAATPRKDGPKRSVLSKSVPGYKPKVIPNAICGICLKGKESNKKGKAESLIHCSQCENSGHPSCLDMTMELVSMIKTYPWQCMECKTCIICGQPHHEEEMMFCDMCDRGYHTFCVGLGAIPSGRWICDCCQRAPPTPRKVGRRGKNSKEG
For B2, the binding entry with SMARCC1 (human) [3] and with SMARCA2 (human) [4] was “binds” in each case.
